These are yes or no findings as the source states them, for the method shown. In cells and extracts the contact can be indirect. Some entries that bind do so weakly or less than the wild type.
Target: human APOBEC3G (human) (UniProt Q9HC16)
Assay: pull-down

By UniProt entry, the sequences of proteins in these tests, tags left out. Residues count along the entry.
UniProt Q9HC16: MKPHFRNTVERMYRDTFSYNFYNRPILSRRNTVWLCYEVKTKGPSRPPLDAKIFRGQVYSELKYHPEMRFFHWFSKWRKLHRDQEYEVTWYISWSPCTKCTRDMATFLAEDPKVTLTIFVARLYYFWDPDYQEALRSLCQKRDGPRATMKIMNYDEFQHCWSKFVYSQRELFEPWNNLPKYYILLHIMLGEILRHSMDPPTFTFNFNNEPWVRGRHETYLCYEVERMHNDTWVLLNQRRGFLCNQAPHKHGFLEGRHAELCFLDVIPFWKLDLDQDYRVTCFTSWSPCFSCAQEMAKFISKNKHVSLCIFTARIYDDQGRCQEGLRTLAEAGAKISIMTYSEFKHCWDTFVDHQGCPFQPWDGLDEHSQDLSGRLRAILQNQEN
UniProt Q93034, residues 1-386: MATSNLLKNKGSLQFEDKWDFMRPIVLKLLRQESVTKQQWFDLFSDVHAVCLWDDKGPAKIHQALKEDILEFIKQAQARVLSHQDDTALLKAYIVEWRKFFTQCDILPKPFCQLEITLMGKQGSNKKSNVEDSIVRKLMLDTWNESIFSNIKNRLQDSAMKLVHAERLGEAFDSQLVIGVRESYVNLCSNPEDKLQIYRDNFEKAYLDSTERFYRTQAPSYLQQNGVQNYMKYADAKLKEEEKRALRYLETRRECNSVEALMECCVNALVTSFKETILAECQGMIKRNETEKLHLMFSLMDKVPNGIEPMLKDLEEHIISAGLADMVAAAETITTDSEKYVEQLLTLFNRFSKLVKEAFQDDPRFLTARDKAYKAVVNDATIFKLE

With “Cullin 5 with C-terminus truncated (1–386) (from UniProt Q93034 1-386) (domain or fragment)” the binding was “binds”.

— PMC10033410
